Measured values reported in paper PMC9681215.
No constants are given. Whether binding was seen depends on the method and setting. Binding seen in cells or lysates may run through a third protein. Some results given as binding are weak or reduced against the parent protein; the word gives no strength. Sequences can lack the tags named with a protein. Each block holds one binder with its values, some of them ahead of it.

How the values were obtained:
[1] = molecular target: T1, Sloth2-FLAG (D. melanogaster) (UniProt B7Z0X7); assay: co-IP; FLAG-tagged bait held on magnetic anti-FLAG beads, 2 hr at 4 °C; lysate of mitochondria isolated from transfected S2R+ cells; 50 mM Tris-HCl pH 7.4, 150 mM NaCl, 10% glycerol, 20 mM MgCl2, 1% digitonin; eluted with 3xFLAG peptide; HA-tagged prey detected by western blot
T1 sequence: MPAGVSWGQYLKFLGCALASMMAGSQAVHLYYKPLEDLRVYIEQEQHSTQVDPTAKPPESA

[2] = molecular target: T2, Sloth1-FLAG (D. melanogaster) (UniProt Q9W3T5); assay: as above
T2 sequence: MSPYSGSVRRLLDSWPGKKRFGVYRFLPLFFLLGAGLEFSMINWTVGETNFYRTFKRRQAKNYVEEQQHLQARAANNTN

- binding [1]: binds
B1: Sloth1-HA (peptide, UniProt Q9W3T5 1-79)
chain: T2 sequence

- binding [2]: binds
B2: Sloth2-HA (peptide, UniProt B7Z0X7 1-61)
chain: T1 sequence

The remaining lines, values behind:

B3: CG10075-HA (protein, UniProt Q9VRZ7 1-259)
chain: MQCTRAVARLAGGLARTAWATQHTYKHRPAILGLLEQPCRLCSSTGVVDNTNKTKPGTAEAAEGGILKRVLNKVGFTPNTKARLKVTSHLLYESVADKINYVTFFRDFNLPNTFNSWFLVTELHVWLLLMRSMAEGSETGEDGRFLRNCIVEAMWGDVNTRAKKLGAHNPSRTRQQIETLSEQFQAALIAYDEGIMSDDRVLACALWRRFFEMNCDDYAQIERLVKYVRQQASMLDSLPRDQFIVKPKVAWLELDKCKV
- binding [2]: binds

B4: RFeSP-HA (protein, UniProt Q9VQ29 36-230)
chain: AHTDLQVPDFSAYRRESVKDSRRRNDTAEERKAFSYLMVGAGAVGGAYAAKGLVNTFIGSMSASAEVLAMAKIEIKLSDIPEGKSVTFKWRGKPLFIRHRTAAEIETERNVPTSTLRDPEADDQRVIKPEWLVVIGVCTHLGCVPIANAGDWGGYYCPCHGSHYDASGRIRKGPAPLNLEVPTHEFPNEGLLVVG
- binding [2]: binds
